The campaign covered roughly 210,000 compounds. About 5,900 (2.8%) were called active. Roughly 5% stayed inconclusive and do not appear here. Calls follow the shape of the dose curve; as a rule, active = well fitted activation curve with a large enough effect; inconclusive = small, poorly fitted or top-dose-only effect; inactive = no such curve, though single readings can be large or run the other way. Only a part is listed here, and it is no random draw. The source gives no active or inactive call for entries shown without one.

This note sets out measurements from PubChem BioAssay AID1458 (National Center for Advancing Translational Sciences (NCATS), 2008).
Potency is read from the fitted curve at half-maximal effect.

A short description of this test: qHTS Assay for Enhancers of SMN2 Splice Variant Expression. Also: nearly all actives have a fitted effect of over 55% in size. As to activity change, positive = activation: % of control where 0% means no effect. Particulars: HEK293 SMN2-luciferase splicing reporter, luminescence, 30-36 h; activity change, positive = activation: at 46.1 µM (top of the series) unless noted. The essentials:
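HEK293 cells carry an SMN2 minigene-luciferase reporter in which exon 7 inclusion puts luciferase in frame. Cells were seeded at 2000 cells/well, attached for 10-12 hours, then exposed to compounds for 30-36 hours at 37C before ONE-Glo luminescence.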
In general terms: In qHTS, concentration-response curves come from the screen itself.
As to `Cc1ccc(C(=O)Nc2ccc(S(=O)(=O)N3CCCC3)cc2)s1`, the activity change, positive = activation was found to be 30.1%. With `O=C(c1ccc(-c2ccc(Cl)cc2Cl)o1)N1CCOCC1`, the Potency was active: 22.4 µM. Turning to `O=C(/C=C/c1nc2ccccc2s1)N1CCCCCC1`, the activity change, positive = activation was found to be 185%. Same read-out and setting: for `COc1ccccc1OCC(=O)N/N=C1\CCc2ccccc21` the value was 31.3%. Same read-out and setting: for `Cn1cccc1C(=O)N1CCC2(CC1)CCN(c1ncccn1)CC2` the value was inactive: -36.2%; for `O=S(=O)(c1ccc2c(c1)OCCO2)N1CCC(c2nc3ccc(Cl)cc3[nH]2)CC1`, -78%; for `CCOC(=O)N1CCN(Cc2ccccc2F)CC1`, 31.4%. For the compound `O=C(Oc1ccc(N2C(=O)CCC2=O)cc1)c1ccccc1Cl`, the “activity change, positive = activation” value is inactive: 0.44%. Still for that read-out and setting: for `CC(C)c1cccc(C(C)C)c1NC(=O)COC(=O)C1=COCCO1` the value was 35.7%. Still for that read-out and setting: as for `COc1ccc(N2CCc3c(C)nc4c(OC)cccc4c32)cc1`, the figure is -82.7%; as for `O=C(NC(=S)Nc1ccc(N2CCOCC2)cc1)c1ccc2c(c1)OCCO2`, inactive: -61%. Same read-out and setting: as for `CC(C)OCC(O)Cn1c(N2CCCC2)nc2c1c(=O)[nH]c(=O)n2C` (stereo not drawn), the figure is 34%. Take `COC(=O)c1ccc(-n2c(C)cc(-c3csc(NC(=O)c4ccc(S(=O)(=O)N(C)C)cc4)n3)c2C)cc1`: the “activity change, positive = activation” value is inactive: -62.8%. For the compound `CC(C(=O)N1CCc2ccccc21)n1cccc1` (stereo not drawn), the activity change, positive = activation came out at 29.6%. Still for that read-out and setting: as for `COc1ccc(-c2nc3ccccc3n2Cc2ccc(Cl)cc2)cc1`, the figure is 36.1%.

Take `COc1cccc(NC(=O)CSc2nnc(Cc3cccs3)n2-c2ccc(C)cc2)c1`: the activity change, positive = activation worked out at 41.8%.

On to `Cc1sc2ncn(CC(=O)NCCCC(=O)N3CCN(Cc4ccc5c(c4)OCO5)CC3)c(=O)c2c1C`, for which the “activity change, positive = activation” value was inactive: -43.7%. As to `O=C(NCc1ccccc1)c1cccc(COc2cc(Cl)ccc2Cl)c1`, the Potency is active: 12.6 µM. For `Cc1ccc2c(c1)C1OCCC1C1N2C(=O)C2C(C(=O)O)C3C=CC21O3` (stereo not drawn), the activity change, positive = activation stood at 28.6%. As to `O=C(Cc1cccs1)N1CCCC(c2nc3c(nnn3Cc3ccccc3Cl)c(=O)[nH]2)C1` (stereo not drawn), the activity change, positive = activation amounted to 33.9%. With `Nc1[nH]n2c(=O)cc(-c3ccccc3)nc2c1N=Nc1ccccc1`, the “activity change, positive = activation” value was inactive: -90.9%. Same read-out and setting: for `COc1ccc(NC(=O)c2cccs2)cc1OC` the value was 32.1%; for `COc1cc2c(OC)cccc2cc1C(=O)O`, 31.2%. Turning to `Nc1nc2ccccc2n1/N=C/c1ccc(Br)cc1`, the Potency was active: 35.5 µM. For the compound `COc1ccccc1Nc1nnc(SCC(=O)NC(=O)Nc2ccc3c(c2)OCCO3)s1`, the activity change, positive = activation was -61%. As to `COc1ccc(NC(=S)N(C)CC2COc3ccccc3O2)cc1` (stereo not drawn), the activity change, positive = activation came out at 56.1%. For `Cc1ccc(NC(=O)c2ccc(OC(=O)c3cc4ccccc4o3)cc2)cc1`, the Potency is active: 10 µM. Consider `CCOc1ccc(OCc2ccc(C(=O)NCc3cccnc3)o2)cc1`, for which the “activity change, positive = activation” value was inactive: -31.6%. For the compound `Cc1cccn2cc(-c3c[nH]c4ccccc34)nc12`, the Potency was active: 12.6 µM. Still for that read-out and setting: for `O=C(Nc1ccc(N2CCCC2)c(Cl)c1)c1ccco1` the value was active: 6.31 µM.

In the case of `COc1ccc(Nc2nc(-c3cccs3)cs2)c(OC)c1`, the activity change, positive = activation amounted to 86.2%.

On to `O=C1c2ccccc2C(=O)N1CCc1nc(-c2cccnc2)no1`, for which the activity change, positive = activation is 37.1%. On the same count and under the same terms, as for `COC(=O)COc1ccc(S(=O)(=O)NCc2ccco2)cc1Cl`, the figure is 38.8%; as for `CCOC(=O)N1CCN(S(=O)(=O)c2cc(OCC(N)=O)c(C)cc2Cl)CC1`, 33.8%. As for `Cc1ccc(C(=O)Nc2ccc(SC(F)F)cc2)s1`, the Potency is active: 7.08 µM. For the compound `Cc1oc(C)c(C(N)=O)c1C(N)=O`, the activity change, positive = activation was 55.8%. Same read-out and setting: as for `O=S1(=O)C=C(SCc2ccc(Cl)c(Cl)c2)Nc2ccccc21`, the figure is inactive: -76.7%; as for `CCc1ccc(CNC(=O)Cn2c(-c3cccs3)cc3cc(F)ccc32)cc1`, 49.3%.

With `Cc1ccc2nc(-c3cccnc3SCC(=O)N3c4ccccc4CC3C)[nH]c2c1` (stereo not drawn), the Potency was active: 14.1 µM. The same measure, in the same setting: as for `CCOc1c2ccc(C(=O)NCCc3cccs3)cc2nn1CC`, the figure is active: 14.1 µM; as for `CCOC(=O)c1nn(-c2ccc(C)cc2)cc1C(=O)c1ccccc1`, active: 11.2 µM. On to `O=C(Nc1ccc(Cc2ccncc2)cc1)C1CCC(N2C(=O)C3C4C=CC(C5CC45)C3C2=O)CC1` (stereo not drawn), for which the “activity change, positive = activation” value was inactive: -66.4%. With `N/C(=N\OC(=O)COc1ccccc1Cl)c1ccccn1`, the Potency was active: 12.6 µM. `O=C(NC1=NCCS1)c1cccc(OC(F)F)c1`: the Potency was active: 11.2 µM.

Turning to `CCCC(=O)Nc1ccc(NC(=O)C23CC4CC(CC(C4)C2)C3)cn1`, the activity change, positive = activation was determined as 38.1%. The same measure, in the same setting: as for `COc1ccc2nc(NC(=O)CCNS(=O)(=O)c3ccc4c(c3)oc(=O)n4C)sc2c1`, the figure is 30.1%.

Consider `CC(=O)c1ccc(NC(=S)NC(=O)CC(C)C)cc1`, for which the Potency was active: 7.94 µM. On the same count and under the same terms, as for `CN1C(=O)/C(=C/C=C2\SCCN2C)OC1=S`, the figure is active: 12.6 µM.

For `Cc1nn(C)cc1CN(C)C(=O)CC12CC3CC(CC(C3)C1)C2`, the activity change, positive = activation was -21.4%.

As for `CC(=O)c1c(C)[nH]c(C(=O)OCC(=O)Nc2ccc(Cl)cc2[N+](=O)[O-])c1C`, the “activity change, positive = activation” value is inactive: -77.4%.

With `CCOc1ccc(OCC(=O)Nc2nccs2)cc1`, the Potency was active: 5.01 µM. In the case of `CCC(C)(C(=O)NC1CCCCC1)N(C(=O)C1CCC(=O)N1)c1ccc(C)cc1` (stereo not drawn), the activity change, positive = activation was 24.5%. `CC(OC(=O)c1ccccc1N1C(=O)C2C3CCC(C3)C2C1=O)C(=O)c1ccccc1` (stereo not drawn): the activity change, positive = activation came to 33.4%.
